Data: the supplement of paper PMC5836539
± gives the standard deviation of the averaged measurements. This data set is noisy: repeats of one test often differ as much as different tests do.

Amino acid sequences for entries named in this document (tags omitted). A change or cut given only in a name is not applied to a line headed by its entry.
UniProt Q8IWZ8: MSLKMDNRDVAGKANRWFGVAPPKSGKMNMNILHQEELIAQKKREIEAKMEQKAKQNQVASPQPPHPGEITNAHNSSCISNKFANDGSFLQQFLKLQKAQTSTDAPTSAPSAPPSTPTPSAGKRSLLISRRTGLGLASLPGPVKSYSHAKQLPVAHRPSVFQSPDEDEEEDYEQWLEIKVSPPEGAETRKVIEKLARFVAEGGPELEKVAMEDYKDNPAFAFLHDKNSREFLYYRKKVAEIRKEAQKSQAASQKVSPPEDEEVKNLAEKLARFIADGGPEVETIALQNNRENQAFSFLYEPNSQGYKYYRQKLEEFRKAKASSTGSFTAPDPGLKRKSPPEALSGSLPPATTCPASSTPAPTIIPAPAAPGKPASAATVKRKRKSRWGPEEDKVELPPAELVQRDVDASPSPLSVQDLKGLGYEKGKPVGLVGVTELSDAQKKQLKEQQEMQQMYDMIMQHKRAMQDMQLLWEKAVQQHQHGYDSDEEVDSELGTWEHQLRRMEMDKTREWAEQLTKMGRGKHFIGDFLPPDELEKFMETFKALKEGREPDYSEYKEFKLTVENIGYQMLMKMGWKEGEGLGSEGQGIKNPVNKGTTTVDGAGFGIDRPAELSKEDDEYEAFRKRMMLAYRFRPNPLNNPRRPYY
UniProt Q8N9B5, whole entry, looked up: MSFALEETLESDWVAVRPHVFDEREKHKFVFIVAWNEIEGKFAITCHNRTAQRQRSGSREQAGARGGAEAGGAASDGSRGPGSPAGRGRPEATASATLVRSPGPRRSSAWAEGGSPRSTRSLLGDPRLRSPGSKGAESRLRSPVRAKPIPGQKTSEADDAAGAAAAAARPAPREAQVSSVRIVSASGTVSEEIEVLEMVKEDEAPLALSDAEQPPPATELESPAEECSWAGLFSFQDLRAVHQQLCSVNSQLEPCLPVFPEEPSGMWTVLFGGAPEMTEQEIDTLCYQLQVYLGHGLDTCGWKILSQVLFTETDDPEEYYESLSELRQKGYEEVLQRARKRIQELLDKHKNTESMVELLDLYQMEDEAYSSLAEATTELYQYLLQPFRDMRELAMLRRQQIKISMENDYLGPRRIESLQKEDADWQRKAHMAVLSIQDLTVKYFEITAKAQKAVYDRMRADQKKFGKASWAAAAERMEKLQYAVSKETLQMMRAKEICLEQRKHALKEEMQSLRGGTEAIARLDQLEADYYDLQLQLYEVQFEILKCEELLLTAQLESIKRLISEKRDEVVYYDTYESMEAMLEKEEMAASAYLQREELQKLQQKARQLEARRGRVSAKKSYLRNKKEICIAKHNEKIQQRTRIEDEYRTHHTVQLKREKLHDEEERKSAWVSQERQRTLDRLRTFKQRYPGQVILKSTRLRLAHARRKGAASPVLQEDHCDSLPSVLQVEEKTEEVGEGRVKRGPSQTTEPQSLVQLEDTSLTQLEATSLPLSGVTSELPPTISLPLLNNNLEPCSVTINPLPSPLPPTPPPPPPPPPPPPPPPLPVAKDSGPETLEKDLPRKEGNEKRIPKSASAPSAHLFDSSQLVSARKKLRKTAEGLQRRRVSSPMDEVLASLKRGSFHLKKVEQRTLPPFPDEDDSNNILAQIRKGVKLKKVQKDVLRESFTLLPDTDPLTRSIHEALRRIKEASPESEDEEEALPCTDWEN
UniProt Q8N163, whole entry, looked up: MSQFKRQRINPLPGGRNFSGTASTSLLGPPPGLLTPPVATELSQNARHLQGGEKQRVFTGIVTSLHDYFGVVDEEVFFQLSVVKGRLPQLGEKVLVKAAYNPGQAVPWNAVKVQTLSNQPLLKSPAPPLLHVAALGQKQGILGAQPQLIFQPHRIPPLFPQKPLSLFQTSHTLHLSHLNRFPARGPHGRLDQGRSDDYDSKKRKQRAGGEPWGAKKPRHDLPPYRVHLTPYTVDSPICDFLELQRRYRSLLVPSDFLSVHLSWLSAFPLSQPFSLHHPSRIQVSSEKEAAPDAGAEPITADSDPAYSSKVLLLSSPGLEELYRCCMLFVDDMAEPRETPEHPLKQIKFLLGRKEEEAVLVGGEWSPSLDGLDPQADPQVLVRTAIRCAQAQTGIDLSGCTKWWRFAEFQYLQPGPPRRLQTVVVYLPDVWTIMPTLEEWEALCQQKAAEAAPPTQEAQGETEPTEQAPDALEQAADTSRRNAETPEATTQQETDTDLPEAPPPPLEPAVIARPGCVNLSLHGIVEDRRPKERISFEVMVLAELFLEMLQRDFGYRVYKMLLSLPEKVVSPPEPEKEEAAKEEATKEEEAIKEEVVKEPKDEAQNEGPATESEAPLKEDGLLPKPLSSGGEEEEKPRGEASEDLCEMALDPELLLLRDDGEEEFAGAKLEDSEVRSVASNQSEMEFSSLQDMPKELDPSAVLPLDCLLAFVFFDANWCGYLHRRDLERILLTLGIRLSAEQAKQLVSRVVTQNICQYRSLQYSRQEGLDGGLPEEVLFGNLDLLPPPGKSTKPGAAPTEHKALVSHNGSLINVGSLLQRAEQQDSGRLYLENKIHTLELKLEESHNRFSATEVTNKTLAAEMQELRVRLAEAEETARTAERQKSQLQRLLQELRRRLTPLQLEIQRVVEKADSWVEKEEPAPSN
UniProt Q8TAP9: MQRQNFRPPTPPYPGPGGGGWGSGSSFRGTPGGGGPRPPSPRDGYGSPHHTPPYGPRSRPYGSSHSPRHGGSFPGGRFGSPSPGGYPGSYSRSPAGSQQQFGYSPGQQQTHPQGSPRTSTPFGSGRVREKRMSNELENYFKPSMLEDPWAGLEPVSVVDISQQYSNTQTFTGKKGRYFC
UniProt Q8TDJ6, whole entry, looked up: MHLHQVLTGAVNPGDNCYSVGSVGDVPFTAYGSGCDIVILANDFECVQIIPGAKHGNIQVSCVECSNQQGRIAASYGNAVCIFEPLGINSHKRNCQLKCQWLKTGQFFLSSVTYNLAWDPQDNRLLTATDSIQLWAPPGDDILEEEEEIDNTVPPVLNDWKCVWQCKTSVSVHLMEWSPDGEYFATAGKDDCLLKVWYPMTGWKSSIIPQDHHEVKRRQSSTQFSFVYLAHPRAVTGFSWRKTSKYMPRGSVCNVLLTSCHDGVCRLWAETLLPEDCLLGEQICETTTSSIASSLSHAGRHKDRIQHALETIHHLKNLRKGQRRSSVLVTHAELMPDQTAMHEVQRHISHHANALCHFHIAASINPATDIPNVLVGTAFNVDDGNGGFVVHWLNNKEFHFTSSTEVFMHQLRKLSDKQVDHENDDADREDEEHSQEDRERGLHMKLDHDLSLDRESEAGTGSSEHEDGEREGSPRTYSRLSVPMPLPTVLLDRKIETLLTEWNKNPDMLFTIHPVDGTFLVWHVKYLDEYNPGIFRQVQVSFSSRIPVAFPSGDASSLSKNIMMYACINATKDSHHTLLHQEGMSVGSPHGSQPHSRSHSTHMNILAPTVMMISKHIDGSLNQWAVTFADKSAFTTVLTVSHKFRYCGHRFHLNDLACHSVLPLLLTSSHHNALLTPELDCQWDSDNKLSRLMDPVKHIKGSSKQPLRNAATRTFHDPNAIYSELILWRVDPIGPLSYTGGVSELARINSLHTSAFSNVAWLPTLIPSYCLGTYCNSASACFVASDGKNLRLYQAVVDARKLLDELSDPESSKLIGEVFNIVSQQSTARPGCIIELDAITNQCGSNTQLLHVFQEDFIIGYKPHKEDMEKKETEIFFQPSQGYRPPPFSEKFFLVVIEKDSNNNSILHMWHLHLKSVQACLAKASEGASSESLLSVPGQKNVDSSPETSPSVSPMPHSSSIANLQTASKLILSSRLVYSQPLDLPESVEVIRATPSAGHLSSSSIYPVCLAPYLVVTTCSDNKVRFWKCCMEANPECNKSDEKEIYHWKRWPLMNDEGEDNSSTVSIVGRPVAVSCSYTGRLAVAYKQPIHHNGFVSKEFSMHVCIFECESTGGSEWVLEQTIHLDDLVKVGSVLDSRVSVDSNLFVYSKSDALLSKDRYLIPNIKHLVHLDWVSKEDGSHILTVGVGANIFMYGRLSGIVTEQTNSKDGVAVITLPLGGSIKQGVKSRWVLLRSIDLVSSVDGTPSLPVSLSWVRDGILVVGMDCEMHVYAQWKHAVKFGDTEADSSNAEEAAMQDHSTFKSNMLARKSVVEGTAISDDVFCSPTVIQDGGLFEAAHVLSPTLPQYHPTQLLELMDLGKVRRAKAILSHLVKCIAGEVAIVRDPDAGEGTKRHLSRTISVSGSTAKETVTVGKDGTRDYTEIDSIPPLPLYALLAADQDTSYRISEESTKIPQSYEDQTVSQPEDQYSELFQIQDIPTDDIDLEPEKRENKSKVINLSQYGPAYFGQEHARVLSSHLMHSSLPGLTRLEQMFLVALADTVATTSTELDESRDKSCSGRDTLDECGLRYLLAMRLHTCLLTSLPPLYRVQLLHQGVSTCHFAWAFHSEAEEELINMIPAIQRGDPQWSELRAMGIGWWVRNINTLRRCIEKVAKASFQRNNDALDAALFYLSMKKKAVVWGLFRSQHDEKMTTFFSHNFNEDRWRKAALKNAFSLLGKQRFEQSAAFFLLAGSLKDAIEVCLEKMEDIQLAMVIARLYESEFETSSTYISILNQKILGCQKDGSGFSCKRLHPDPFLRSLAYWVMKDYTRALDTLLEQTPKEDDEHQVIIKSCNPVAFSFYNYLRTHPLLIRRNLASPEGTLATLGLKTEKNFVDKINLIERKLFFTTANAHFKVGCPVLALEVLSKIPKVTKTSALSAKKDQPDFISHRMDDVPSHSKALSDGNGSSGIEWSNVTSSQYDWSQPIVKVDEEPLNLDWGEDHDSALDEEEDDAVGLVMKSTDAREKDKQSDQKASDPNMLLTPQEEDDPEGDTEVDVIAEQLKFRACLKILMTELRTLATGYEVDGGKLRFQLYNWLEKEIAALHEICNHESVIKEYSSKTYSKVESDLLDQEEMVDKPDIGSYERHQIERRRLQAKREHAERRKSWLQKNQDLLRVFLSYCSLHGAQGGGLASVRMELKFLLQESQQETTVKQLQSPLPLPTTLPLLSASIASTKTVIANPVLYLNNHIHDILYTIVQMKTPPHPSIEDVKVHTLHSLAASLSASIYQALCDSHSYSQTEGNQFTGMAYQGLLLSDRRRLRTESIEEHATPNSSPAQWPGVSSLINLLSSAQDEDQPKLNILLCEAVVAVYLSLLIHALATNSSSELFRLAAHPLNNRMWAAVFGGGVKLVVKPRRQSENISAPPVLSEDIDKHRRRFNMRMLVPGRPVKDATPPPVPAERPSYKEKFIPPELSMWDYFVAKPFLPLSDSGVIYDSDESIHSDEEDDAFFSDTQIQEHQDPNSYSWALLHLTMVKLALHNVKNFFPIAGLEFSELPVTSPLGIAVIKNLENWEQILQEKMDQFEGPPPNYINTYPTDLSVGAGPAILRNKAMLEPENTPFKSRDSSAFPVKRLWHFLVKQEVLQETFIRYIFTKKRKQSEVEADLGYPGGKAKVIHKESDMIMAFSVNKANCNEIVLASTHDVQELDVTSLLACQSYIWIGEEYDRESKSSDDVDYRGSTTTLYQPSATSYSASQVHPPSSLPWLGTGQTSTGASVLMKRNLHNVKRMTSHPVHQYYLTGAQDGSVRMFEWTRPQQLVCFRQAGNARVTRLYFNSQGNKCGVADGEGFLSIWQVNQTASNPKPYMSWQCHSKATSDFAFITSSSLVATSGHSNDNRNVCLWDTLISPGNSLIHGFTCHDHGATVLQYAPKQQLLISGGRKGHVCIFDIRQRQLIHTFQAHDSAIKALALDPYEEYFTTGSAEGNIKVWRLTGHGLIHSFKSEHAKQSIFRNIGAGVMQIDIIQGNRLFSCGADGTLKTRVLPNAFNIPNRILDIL
UniProt Q8TF01: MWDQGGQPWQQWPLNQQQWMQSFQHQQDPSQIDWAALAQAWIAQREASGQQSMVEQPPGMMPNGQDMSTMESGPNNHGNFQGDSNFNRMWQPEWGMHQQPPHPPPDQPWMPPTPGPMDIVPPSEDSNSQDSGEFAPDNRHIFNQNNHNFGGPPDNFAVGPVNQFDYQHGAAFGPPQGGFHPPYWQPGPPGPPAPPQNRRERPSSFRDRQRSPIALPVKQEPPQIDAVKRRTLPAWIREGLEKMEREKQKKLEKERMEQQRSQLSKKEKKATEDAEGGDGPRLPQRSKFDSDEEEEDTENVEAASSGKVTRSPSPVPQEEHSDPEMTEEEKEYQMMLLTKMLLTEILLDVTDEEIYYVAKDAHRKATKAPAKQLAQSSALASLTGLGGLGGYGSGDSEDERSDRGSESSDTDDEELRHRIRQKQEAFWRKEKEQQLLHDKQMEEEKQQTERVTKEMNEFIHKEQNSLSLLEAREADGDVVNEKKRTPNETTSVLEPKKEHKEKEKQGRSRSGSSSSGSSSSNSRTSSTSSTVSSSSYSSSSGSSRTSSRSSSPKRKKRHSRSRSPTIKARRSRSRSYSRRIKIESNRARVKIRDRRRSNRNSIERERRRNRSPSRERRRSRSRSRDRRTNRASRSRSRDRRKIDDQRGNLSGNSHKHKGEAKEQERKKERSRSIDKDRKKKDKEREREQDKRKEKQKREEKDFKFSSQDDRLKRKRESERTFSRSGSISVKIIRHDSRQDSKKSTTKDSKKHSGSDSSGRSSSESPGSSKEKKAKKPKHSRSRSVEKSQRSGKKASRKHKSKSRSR

Compound: CC[C@@H](C)Nc1cc(C(=O)N[C@H]2C[C@H]3CC[C@@H](C2)N3c2ccc(C(=O)C3CC3)cn2)c(C)cc1C(N)=O [XL888]
Assay: phosphopeptide melting temperature shift (XL888 minus DMSO); higher = stabilised by drug treatment
Settings: 100 µM; treatment time 2 h; layout: intact cells; SK-Mel 28
Experimental: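 Phospho-TPP in intact SK-Mel 28 cells treated with 100 uM XL888 or DMSO for 2 h, heated at 10 temperatures (37-67 C) for 3 min, soluble fraction TMT10plex-labelled and TiO2 phospho-enriched. Melting curves were fitted per phosphopeptide; the value is the melting point difference (drug minus vehicle) in each of two biological replicates.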

Row | Target | phosphopeptide melting temperature shift [°C]
1 | UniProt Q8IW50-3_phosphosite_87 (phosphosite position: 87) | 1.57 ± 0.66
2 | UniProt Q8IWQ3-4_phosphosite_294 (phosphosite position: 294) | 1.25 ± 0.76
3 | UniProt Q8IWS0-2_phosphosite_156 (phosphosite position: 156) | 2.7 ± 2.6
4 | UniProt Q8IWZ8_phosphosite_485 (phosphosite position: 485) | -0.355
5 | UniProt Q8IZ21-3_phosphosite_342 (phosphosite position: 342) | 1.16
6 | UniProt Q8N4C8-4_phosphosite_743 (phosphosite position: 743) | 1.43
7 | UniProt Q8N4C8-4_phosphosite_758 (phosphosite position: 758) | 1.48
8 | UniProt Q8N4S0-2_phosphosite_131 (phosphosite position: 131) | 2.57
9 | UniProt Q8N9B5-2_phosphosite_713 (phosphosite position: 713) | 0.686 ± 1.2
10 | UniProt Q8N122-3_phosphosite_705 (phosphosite position: 705) | 1.07 ± 1.7
11 | UniProt Q8N122-3_phosphosite_719 (phosphosite position: 719) | 1.18 ± 2.1
12 | UniProt Q8N163-2_phosphosite_675 (phosphosite position: 675) | 0.455
13 | UniProt Q8N163-2_phosphosite_678 (phosphosite position: 678) | 0.455
14 | UniProt Q8N163-2_phosphosite_681 (phosphosite position: 681) | 0.455
15 | UniProt Q8N264-3_phosphosite_320 (phosphosite position: 320) | 1.38
16 | UniProt Q8NBN3-3_phosphosite_479 (phosphosite position: 479) | 1.52
17 | UniProt Q8NC51-3_phosphosite_237 (phosphosite position: 237) | 2.29 ± 1.3
18 | UniProt Q8NC51-3_phosphosite_240 (phosphosite position: 240) | 1.27 ± 3.2
19 | UniProt Q8NDI1-3_phosphosite_300 (phosphosite position: 300) | 0.558 ± 0.61

Row | Target | phosphopeptide melting temperature shift [°C]
20 | UniProt Q8NDI1-3_phosphosite_401 (phosphosite position: 401) | -0.126 ± 0.021
21 | UniProt Q8NFC6_phosphosite_482 (phosphosite position: 482) | 3.32 ± 1
22 | UniProt Q8NFC6_phosphosite_2779 (phosphosite position: 2779) | 2.04
23 | UniProt Q8NFC6_phosphosite_2780 (phosphosite position: 2780) | 2.04
24 | UniProt Q8NG27-3_phosphosite_222 (phosphosite position: 222) | 1.49
25 | UniProt Q8TAP6-2_phosphosite_83 (phosphosite position: 83) | -0.217
26 | UniProt Q8TAP9_phosphosite_133 (phosphosite position: 133) | 7.1
27 | UniProt Q8TB72-4_phosphosite_80 (phosphosite position: 80) | -1.23
28 | UniProt Q8TBA6-2_phosphosite_116 (phosphosite position: 116) | -1.15
29 | UniProt Q8TD55-2_phosphosite_314 (phosphosite position: 314) | 0.412
30 | UniProt Q8TDJ6-2_phosphosite_473 (phosphosite position: 473) | 2.17
31 | UniProt Q8TDJ6-2_phosphosite_1348 (phosphosite position: 1348) | 1.87 ± 0.84
32 | UniProt Q8TDJ6-2_phosphosite_1763 (phosphosite position: 1763) | -1.05
33 | UniProt Q8TDZ2-2_phosphosite_786 (phosphosite position: 786) | 1.14 ± 0.91
34 | UniProt Q8TDZ2-2_phosphosite_789 (phosphosite position: 789) | 1.59 ± 0.27
35 | UniProt Q8TDZ2-2_phosphosite_790 (phosphosite position: 790) | 1.59 ± 0.27
36 | UniProt Q8TE77-4_phosphosite_87 (phosphosite position: 87) | 3.79
37 | UniProt Q8TF01_phosphosite_211 (phosphosite position: 211) | -0.559
38 | UniProt Q8WU79-3_phosphosite_139 (phosphosite position: 139) | -1.07

Row | Target | phosphopeptide melting temperature shift [°C]
39 | UniProt Q8WUA7-3_phosphosite_96 (phosphosite position: 96) | -1.3
40 | UniProt Q8WUI4-3_phosphosite_368 (phosphosite position: 368) | -0.905
41 | UniProt Q8WVC0-2_phosphosite_151 (phosphosite position: 151) | 1.7 ± 0.71
42 | UniProt Q8WVC0-2_phosphosite_154 (phosphosite position: 154) | 1.7 ± 0.71
43 | UniProt Q8WVC0-2_phosphosite_212 (phosphosite position: 212) | 2.32
44 | UniProt Q8WVC0-2_phosphosite_220 (phosphosite position: 220) | 1.7
45 | UniProt Q8WWI1-3_phosphosite_246 (phosphosite position: 246) | 3.54
46 | UniProt Q8WWI1-3_phosphosite_533 (phosphosite position: 533) | 0.798 ± 1.2
47 | UniProt Q8WWI1-3_phosphosite_654 (phosphosite position: 654) | 0.715 ± 1.2
48 | UniProt Q8WWI1-3_phosphosite_1259 (phosphosite position: 1259) | -0.0522
49 | UniProt Q8WWM7-6_phosphosite_559 (phosphosite position: 559) | 0.842
50 | UniProt Q8WX93-4_phosphosite_182 (phosphosite position: 182) | 0.383
51 | UniProt Q8WX93-4_phosphosite_410 (phosphosite position: 410) | 1.07
52 | UniProt Q8WXE1-5_phosphosite_97 (phosphosite position: 97) | 1.45
53 | UniProt Q8WYA6-3_phosphosite_293 (phosphosite position: 293) | -2.04
54 | UniProt Q8WYL5-4_phosphosite_203 (phosphosite position: 203) | 2.21
55 | UniProt Q8WYL5-4_phosphosite_209 (phosphosite position: 209) | 2.21
56 | UniProt Q8WYQ5-3_phosphosite_271 (phosphosite position: 271) | 1.92
57 | UniProt Q8WYQ5-3_phosphosite_275 (phosphosite position: 275) | 1.92

Looked up one by one from the entries so far (three):
Row | Target | phosphopeptide melting temperature shift [°C]
46 | UniProt Q8WWI1-3_phosphosite_533 (phosphosite position: 533) | 0.798 ± 1.2
56 | UniProt Q8WYQ5-3_phosphosite_271 (phosphosite position: 271) | 1.92
43 | UniProt Q8WVC0-2_phosphosite_212 (phosphosite position: 212) | 2.32
